Percent effect of library compounds

Amino acid sequences for entries named in this document (tags omitted). Residues count along the entry.
UniProt P9WPC5, whole entry: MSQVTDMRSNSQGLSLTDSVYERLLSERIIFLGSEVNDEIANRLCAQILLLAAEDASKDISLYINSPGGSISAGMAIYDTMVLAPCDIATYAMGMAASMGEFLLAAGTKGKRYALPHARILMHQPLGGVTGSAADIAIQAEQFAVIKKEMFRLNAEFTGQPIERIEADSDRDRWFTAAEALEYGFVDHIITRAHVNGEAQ
UniProt P9WPC3, whole entry partner: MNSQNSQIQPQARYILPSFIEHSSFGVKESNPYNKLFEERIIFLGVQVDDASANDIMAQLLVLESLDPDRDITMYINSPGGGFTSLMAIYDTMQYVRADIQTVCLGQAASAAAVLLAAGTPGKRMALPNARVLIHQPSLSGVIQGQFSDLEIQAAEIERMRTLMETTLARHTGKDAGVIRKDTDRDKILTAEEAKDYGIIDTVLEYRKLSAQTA
UniProt P9WFT3, whole entry: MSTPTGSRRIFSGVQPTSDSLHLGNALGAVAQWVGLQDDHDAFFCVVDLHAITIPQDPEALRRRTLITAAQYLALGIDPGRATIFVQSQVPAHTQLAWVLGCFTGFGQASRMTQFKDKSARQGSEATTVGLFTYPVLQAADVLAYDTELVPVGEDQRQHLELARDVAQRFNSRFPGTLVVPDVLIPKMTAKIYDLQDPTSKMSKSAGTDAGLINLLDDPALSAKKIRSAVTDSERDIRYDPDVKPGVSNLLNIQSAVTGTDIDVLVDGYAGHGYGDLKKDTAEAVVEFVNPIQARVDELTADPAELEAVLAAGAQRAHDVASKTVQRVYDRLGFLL
UniProt I6X8D2, whole entry: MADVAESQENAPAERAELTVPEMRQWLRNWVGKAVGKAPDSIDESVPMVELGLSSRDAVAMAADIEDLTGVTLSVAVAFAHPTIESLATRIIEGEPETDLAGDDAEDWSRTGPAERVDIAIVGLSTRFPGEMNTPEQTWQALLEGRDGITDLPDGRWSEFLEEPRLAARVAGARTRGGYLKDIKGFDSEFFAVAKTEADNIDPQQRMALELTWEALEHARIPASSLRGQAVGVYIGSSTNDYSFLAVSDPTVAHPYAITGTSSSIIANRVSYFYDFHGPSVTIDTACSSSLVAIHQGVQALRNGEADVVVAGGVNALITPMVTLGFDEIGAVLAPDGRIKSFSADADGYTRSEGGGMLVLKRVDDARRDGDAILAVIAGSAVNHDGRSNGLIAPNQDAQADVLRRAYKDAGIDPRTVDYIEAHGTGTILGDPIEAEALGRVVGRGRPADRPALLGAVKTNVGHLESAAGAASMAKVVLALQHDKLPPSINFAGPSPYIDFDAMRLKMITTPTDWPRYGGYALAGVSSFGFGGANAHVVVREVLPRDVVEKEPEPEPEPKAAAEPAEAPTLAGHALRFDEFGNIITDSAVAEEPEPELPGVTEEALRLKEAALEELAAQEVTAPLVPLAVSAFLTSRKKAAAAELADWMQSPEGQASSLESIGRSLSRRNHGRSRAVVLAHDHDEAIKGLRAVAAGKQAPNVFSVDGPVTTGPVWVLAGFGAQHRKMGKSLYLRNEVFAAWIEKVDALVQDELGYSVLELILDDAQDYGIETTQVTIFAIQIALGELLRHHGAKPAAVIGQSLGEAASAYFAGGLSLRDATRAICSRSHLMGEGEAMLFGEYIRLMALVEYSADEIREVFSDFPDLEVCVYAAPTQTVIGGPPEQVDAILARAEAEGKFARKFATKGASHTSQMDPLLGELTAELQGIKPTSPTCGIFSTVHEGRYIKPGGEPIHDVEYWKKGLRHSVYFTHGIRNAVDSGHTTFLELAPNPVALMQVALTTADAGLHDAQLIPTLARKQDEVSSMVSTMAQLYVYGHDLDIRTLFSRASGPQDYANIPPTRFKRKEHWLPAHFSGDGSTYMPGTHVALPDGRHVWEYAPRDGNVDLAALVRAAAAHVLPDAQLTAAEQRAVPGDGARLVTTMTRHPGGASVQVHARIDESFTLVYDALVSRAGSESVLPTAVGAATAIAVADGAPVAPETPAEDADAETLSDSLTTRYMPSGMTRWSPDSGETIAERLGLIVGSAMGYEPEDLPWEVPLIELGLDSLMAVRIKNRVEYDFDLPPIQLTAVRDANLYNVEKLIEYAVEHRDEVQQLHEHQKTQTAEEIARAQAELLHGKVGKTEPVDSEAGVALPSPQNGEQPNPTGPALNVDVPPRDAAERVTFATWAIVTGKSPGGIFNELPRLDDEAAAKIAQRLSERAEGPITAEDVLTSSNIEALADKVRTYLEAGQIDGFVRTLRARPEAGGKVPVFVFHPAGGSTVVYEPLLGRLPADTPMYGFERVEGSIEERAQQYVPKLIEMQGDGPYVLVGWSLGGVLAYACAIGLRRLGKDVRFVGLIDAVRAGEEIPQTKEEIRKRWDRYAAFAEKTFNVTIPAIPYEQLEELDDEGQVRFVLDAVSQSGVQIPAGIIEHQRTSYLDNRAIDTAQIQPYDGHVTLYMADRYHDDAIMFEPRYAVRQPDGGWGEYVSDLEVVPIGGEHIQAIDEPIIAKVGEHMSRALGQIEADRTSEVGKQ
UniProt Q8IDJ8, 1-583: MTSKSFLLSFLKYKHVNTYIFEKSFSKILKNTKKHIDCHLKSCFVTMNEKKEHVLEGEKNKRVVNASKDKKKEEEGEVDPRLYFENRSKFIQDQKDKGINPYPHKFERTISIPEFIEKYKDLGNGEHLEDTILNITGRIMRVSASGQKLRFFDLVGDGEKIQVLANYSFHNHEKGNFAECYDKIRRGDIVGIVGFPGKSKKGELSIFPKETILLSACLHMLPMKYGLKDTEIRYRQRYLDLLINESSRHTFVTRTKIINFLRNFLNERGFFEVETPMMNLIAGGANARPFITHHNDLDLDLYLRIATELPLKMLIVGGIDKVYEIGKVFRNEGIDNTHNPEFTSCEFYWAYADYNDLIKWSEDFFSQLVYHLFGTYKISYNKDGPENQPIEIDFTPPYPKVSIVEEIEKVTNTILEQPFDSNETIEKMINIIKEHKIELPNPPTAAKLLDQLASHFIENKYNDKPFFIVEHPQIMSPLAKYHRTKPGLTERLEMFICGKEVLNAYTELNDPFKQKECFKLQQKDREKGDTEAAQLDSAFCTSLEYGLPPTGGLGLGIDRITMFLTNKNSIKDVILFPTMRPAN

Source: ChEMBL document CHEMBL3988442, “University of Dundee, Small-Polar-MMV Screening Library” (2021).

ClpP1P2: 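ClpP1P2, Mycobacterium tuberculosis (UniProt P9WPC5 and UniProt P9WPC3). Protease assay of ClpP1P2, read by the AMC dye that it sets free. Tested at 50 µM. Higher reads as stronger inhibition, judged from the few compounds that gave an IC50. Most other retested compounds had strongly negative values. Of about 69,000 compounds tested this way, about 10 (0.015%) reached 50% or more in at least one test.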
MtTrpRS: 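Enzyme assay of tryptophanyl-tRNA synthetase; the read-out is not stated. Target: Tryptophan-tRNA ligase, Mycobacterium tuberculosis (UniProt P9WFT3). Tested at 10 µM. Direction is not recorded; retested compounds ran higher, which suggests that high means inhibition. About 65,000 compounds were tested under these conditions; 0.098% (about 64) showed 50% or more at least once.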
Pks13 thioesterase: 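Enzyme assay of the thioesterase domain of polyketide synthase 13; the read-out is not stated. Target: Polyketide synthase Pks13, Mycobacterium tuberculosis (UniProt I6X8D2). Concentration: 30 µM. Higher reads as stronger inhibition (inferred from which compounds were picked for retests). Size under these conditions: about 67,000 compounds, about 300 of them at 50% or above in at least one test.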
PfKRS1: 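Lysine-tRNA ligase, Plasmodium falciparum 3D7 (UniProt Q8IDJ8). Enzyme assay of the cytosolic lysyl-tRNA synthetase in 384-well plates, read by luminescence. Tested at 30 µM. Direction is inferred from only a few compounds that gave an IC50; most scored high, so higher reads as stronger inhibition. Of about 69,000 compounds tested this way, about 49 (0.071%) reached 50% or more in at least one test.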

The filed quantity is “Percent Effect” (%).
The controls that fix the scale are not given in the record; negative values are as filed.
Compounds were drawn at random from those tested, without regard to their results.
A dash means the value is not listed here; it may have been measured.

compound,ClpP1P2,MtTrpRS,Pks13 thioesterase,PfKRS1
CN1CC2(CCN(C(=O)c3ccc4nonc4c3)CC2)CC1=O,-4.703%,-0.08084%,-7.955%,8.853%
COc1cc(CN2CC[C@H](NC(C)=O)[C@@H](O)CC2)ccc1F,-2.23%,-,-18.97%,-0.9967%
Cc1ccc(C(=O)N(C)Cc2cc(Br)cs2)c(=O)[nH]1,-11.65%,-1.801%,-22.89%,5.235%
CC(=O)c1ccc(S(=O)(=O)Nc2cnn(C3CCOCC3)c2)cc1,1.513%,5.282%,4.118%,0.1512%
CCc1nnc2n1CCN(Cc1ncc(-c3ccc(F)cc3)o1)C2,-26.99%,-10.48%,0.1333%,-0.7715%
CNC(=O)[C@H]1C[C@@H]2CN(Cc3cccnc3OC)C[C@@H]2N1C(C)C,2.431%,-1.903%,-31.34%,3.072%
O=C(C1CCCCO1)N1CCc2ncnc(NCc3ccon3)c2CC1 (centres unmarked),-10.14%,-3.478%,-,-1.151%
CN(C)S(=O)(=O)N(C)C(c1cccc(F)c1)c1ccccn1 (centres unmarked),-11.73%,-7.107%,-19.7%,4.122%
CNc1cc(C)nc(NCc2cc(C)cc3c(C)c(C)[nH]c23)n1,15.35%,-4.768%,13.02%,-10.08%
CN1CCCc2cc(-c3cncn3CC(=O)NC(C)(C)C)ccc21,-4.503%,-5.961%,6.038%,1.048%
Cc1cc(C)n2c(CCCNS(=O)(=O)c3cccs3)nnc2n1,-17.04%,2.593%,-1.259%,-0.3621%
CCN(CC1CC1)C(=O)NCc1nnc2n1CCC2,-6.029%,0.5161%,-1.234%,-1.009%
CN(CCNc1ncc2c(n1)CCN2c1ccccc1)S(C)(=O)=O,10.39%,-0.7916%,-13.94%,2.547%
O=C(NCC(O)COc1ccccc1)C1(c2ccc(F)cc2)CC1 (centres unmarked),2.65%,1.019%,-34.53%,5.148%
c1ncn(CC2CCCCN2Cc2noc(C3CC3)n2)n1 (centres unmarked),27.8%,1.572%,-5.712%,2.874%
CN(C)C(=O)c1ccccc1NC(=O)N(C)Cc1ccccc1O,0.2387%,-0.7048%,-9.271%,2.167%
Cn1cc(CN2CC[C@]3(C[C@H](Oc4ccccn4)CO3)C2)cn1,-10.04%,-,10.92%,6.253%
COc1ccc(C(O)CN2CC(n3cc(C)cn3)C2)cc1 (centres unmarked),-13.47%,-3.903%,-9.019%,-6.639%
CN1CC[C@]2(CN(CC3CCOC3)C[C@H]2c2ccccc2)C1=O (some centres unmarked),-1.607%,-,-31.35%,0.1403%
CN(Cc1nc2ccccc2[nH]1)C(=O)C(C)(C)n1cc(Cl)cn1,-9.64%,-8.259%,-1.322%,4.772%
Cc1cccc(N2CC[C@@H]3CN(C(=O)c4ccco4)CCO[C@@H]3C2)n1,6.505%,1.057%,-34.32%,1.49%
c1ccc(Cn2cc(CNCC3CNc4ccnn4C3)cn2)cc1 (centres unmarked),-6.3%,62.43%,-,-3.135%
CCc1cnc(CN(C)C2CCN(CC3CCN(C(C)=O)CC3)C2)o1 (centres unmarked),4.454%,5.018%,-3.767%,4.42%
COc1ccccc1OCC(=O)NCC(C)(O)C1CC1 (centres unmarked),-0.9243%,-1.373%,-,0.9251%
Cc1cc(C)c2c(NCCC3(O)CCCC3)ncnc2n1,6.791%,3.382%,-15.87%,14.07%
F[C@@H]1CN(CC2CC2)C[C@@H]1OCc1nc2ccccc2o1,-12.51%,-0.8346%,11.97%,5.498%
CCC(=O)N1CCC2(C=C(C(=O)N3CCCC3)c3ccccc32)CC1,-9.78%,-,-54.81%,1.807%
CC(=O)N1N=C(c2ccccc2)OC1C(=O)NCCC1=CCCCC1 (centres unmarked),10.37%,-4.583%,-29.99%,4.482%
CCCS(=O)(=O)N1Cc2nccn2CC(CN(C)C)C1 (centres unmarked),6.196%,-2.464%,-16.21%,6.42%
CC(C)C(=O)Nc1ncn(Cc2cccc(Br)c2)n1,-0.2124%,-3.073%,-21.9%,8.638%
COCCN(Cc1cnn(C)c1)CC1CCN(C(C)C)CC1,-17.45%,-4.235%,-7.039%,3.918%
COC(=O)CN(C(=O)c1ccc(Cl)o1)c1cccc(F)c1,-16.7%,-1.867%,-6.915%,-4.872%
c1ccc(CO[C@H]2C[C@@H]3CN(Cc4cncnc4)C[C@@H]3C2)cc1,-9.008%,-6.319%,8.155%,-0.4992%
Cc1ccc(-n2nc3n(c2=O)CCN(C(=O)c2ccc(Cl)cc2)C3)cc1,7.622%,-8.211%,-11.85%,3.618%
CN(C)c1ncnc2c1CCN(CC1CCOC1)CC2 (centres unmarked),7.125%,0.2615%,-17.29%,2.806%
Cc1nc(NCCc2noc(C3CCCO3)n2)c2sccc2n1 (centres unmarked),-4.879%,6.839%,24.55%,1.76%
CCCc1cc(NC2CCc3nc(CC)nn3C2)n2ncnc2n1 (centres unmarked),-3.386%,0.7712%,-7.149%,-0.5228%
Cc1nc2c(c(N3CCCC(OCc4ccccn4)C3)n1)CCNCC2 (centres unmarked),5.499%,-6.108%,-8.773%,-0.2794%
COCC(=O)N1CCC(c2csc(NC(C)=O)n2)CC1,-7.25%,-5.176%,7.737%,2.036%
c1cn(Cc2nnc(C3CCN(C4CCCCC4)CC3)n2C2CC2)cn1,6.747%,-5.518%,-30.36%,2.853%
CSc1nc(N)c2c(n1)N=C1COC(O)=C1C2c1cccc(Cl)c1 (centres unmarked),-0.05249%,-0.7638%,-41.8%,3.976%
Cc1cccc(CC(=O)NS(=O)(=O)c2ccc(F)c(F)c2)c1,-0.8137%,1.168%,-7.427%,5.78%
COCCCC1CCCN(C(=O)CCc2cc(O)no2)C1 (centres unmarked),-4.222%,-3.791%,-2.693%,9.228%
Cc1ccccc1CC(=O)NCCNc1nccc(C(F)(F)F)n1,7.133%,-4.16%,-20.39%,3.894%
Cc1cc(NCCc2nc(C)c[nH]2)nc(-c2ccccc2O)n1,-6.091%,0.8163%,-15.23%,10.19%
Cn1ccnc1C1CCN(CCC2CCOC2)CC1 (centres unmarked),-10.02%,1.667%,-4.391%,1.634%
O=S1(=O)C[C@@H]2[C@H](C1)N(Cc1ccoc1)CCN2Cc1ccncc1,4.456%,-1.215%,-0.005746%,8.967%
NC(=O)Cn1c(CO)cnc1SCC(=O)NCc1ccccc1Cl,24.13%,1.083%,-17.77%,3.003%
CC[C@@]1(O)CCN(c2ncc(Cl)cc2C(F)(F)F)C[C@H]1O,-8.93%,0.4442%,9.305%,-3.548%
CNC(=O)[C@@H](C)NC(=O)c1cc(-c2ccc(F)cc2)c(C)s1,0.9429%,-5.828%,-36.71%,-1.968%
CC(O)(CCc1ccccc1)CNC(=O)c1ccc(F)cc1 (centres unmarked),-37.4%,15.27%,-11.6%,-0.4187%
O=S(=O)(N1CCCCCC1)N1CCCN(CC2CCCO2)CC1 (centres unmarked),-9.981%,1.052%,-14.02%,4.734%
Cc1ccc(N2CCC3(CN(Cc4cccs4)CCC3(F)F)C2)nn1 (centres unmarked),1.953%,-,20.35%,2.751%
Cc1cnc(CN2CCOC(CNc3cccnn3)C2)cn1 (centres unmarked),-7.873%,-0.7194%,-3.373%,4.371%
Cc1cc(NC(=O)Cn2cnc(-c3cccs3)cc2=O)sn1,-5.802%,20.9%,-9.028%,-2.275%
c1cnc2c(-c3nccn3C[C@@H]3CCCN4CCCC[C@H]34)cccc2c1,-3.652%,-1.107%,8.015%,1.499%
Cc1cc(C)n(-c2cncc(NCCC(=O)NC(C)C)n2)n1,-48.68%,2.68%,62.36%,3.125%
COC[C@H]1CCC[C@]12CN(Cc1cccc(C)n1)CCO2,15.62%,-4.011%,13.86%,-2.119%
CC(C)Nc1cccc(CNC(=O)N2CCCC2)c1,-11.75%,4.928%,-1.74%,-2.309%
O=C([C@H]1CC[C@@H]2[C@@H](CCN2Cc2ccc(F)cc2)O1)N1CCCO1,-10.18%,-3.417%,-29.36%,3.969%
CC(C)NC(=O)CS(=O)(=O)Cc1coc(-c2ccc(F)cc2)n1,13.98%,4.279%,-10.53%,2.239%
Cc1c(C)n(CC(O)CN2CCN(CCO)CC2)c2c(Cl)cccc12 (centres unmarked),-0.3528%,-4.811%,-19.28%,6.521%
Cc1ccc2nc3n(c2c1)[C@@H](CNC(=O)c1ccncc1)COC3,6.028%,-0.5311%,20.44%,3.607%
CNC(=O)COc1nc(C(C)(C)C)no1,-10.8%,-2.734%,6.381%,3.275%
CC(C)Cc1noc(CN2CCC(NC(=O)c3cccs3)CC2)n1,7.163%,-0.4143%,-10.04%,4.749%

6 of the entries, repeated:

| compound | ClpP1P2 | MtTrpRS | Pks13 thioesterase | PfKRS1 |
|---|---|---|---|---|
| `CN(C)S(=O)(=O)N(C)C(c1cccc(F)c1)c1ccccn1` (centres unmarked) | -11.73% | -7.107% | -19.7% | 4.122% |
| `CCc1nnc2n1CCN(Cc1ncc(-c3ccc(F)cc3)o1)C2` | -26.99% | -10.48% | 0.1333% | -0.7715% |
| `CNC(=O)[C@@H](C)NC(=O)c1cc(-c2ccc(F)cc2)c(C)s1` | 0.9429% | -5.828% | -36.71% | -1.968% |
| `Cc1ccc(N2CCC3(CN(Cc4cccs4)CCC3(F)F)C2)nn1` (centres unmarked) | 1.953% | - | 20.35% | 2.751% |
| `Cc1cc(NC(=O)Cn2cnc(-c3cccs3)cc2=O)sn1` | -5.802% | 20.9% | -9.028% | -2.275% |
| `CC(O)(CCc1ccccc1)CNC(=O)c1ccc(F)cc1` (centres unmarked) | -37.4% | 15.27% | -11.6% | -0.4187% |